This note sets out measurements from patent publication US20150011001.

The target in this data set is T1, human RNase H1 (Homo sapiens) (UniProt O60930).
T1 sequence (looked up, limits assumed): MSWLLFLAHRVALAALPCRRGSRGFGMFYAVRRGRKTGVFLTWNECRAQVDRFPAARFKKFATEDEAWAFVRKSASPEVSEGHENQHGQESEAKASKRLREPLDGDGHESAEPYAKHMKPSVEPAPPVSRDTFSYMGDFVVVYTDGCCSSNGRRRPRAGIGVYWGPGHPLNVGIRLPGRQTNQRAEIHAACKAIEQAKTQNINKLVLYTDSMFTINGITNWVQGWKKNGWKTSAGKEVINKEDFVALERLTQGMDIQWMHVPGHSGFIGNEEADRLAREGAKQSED
Description: enzyme reaction in vitro. The settings on record: 1 mM MgCl2, 37 C, purified recombinant protein, protein details: N-terminal His-tag, expressed in E. coli BL21(DE3), label: 5'-32P on RNA, DNA:RNA hybrid.

The exact form of at least one protein or probe is not confirmed. The direction of at least one scale is not stated here. Tags and fusion partners may be left off the protein sequences shown.

On to CTACGCTTTCCACGCACAGT [T7 2'-ara-fluoro], for which the activity signal (ratio V0 modified/unmodified) (2'-ara-fluoro at position 7 of DNA strand, multiple turnover) is 1.1.
As for CTACGCTTTCCACGCACAGT [T7 3'-methyl], the activity signal (ratio V0 modified/unmodified) (3'-methylthymidine at position 7 of DNA strand) was 0.8.
As to CTACGCTTTCCACGCACAGT [T7 4'-methyl], the activity signal (ratio V0 modified/unmodified) (4'-methylthymidine at position 7 of DNA strand) was determined as 0.5.
In the case of CTACGCTTTCCACGCACAGT [T7 S2U], for the setting “2-thiouridine (S2T) at position 7 of DNA strand”, the activity signal (ratio V0 modified/unmodified) is 0.5.
As to CTACGCTTTCCACGCACAGT [T7 pseudo-U], the activity signal (ratio V0 modified/unmodified) (deoxypseudouridine at position 7 of DNA strand) stood at 0.9.
On to CTACGCTTTCCACGCACAGT [T8 2'-F], for which the activity signal (ratio V0 modified/unmodified) (2'-fluorothymidine at position 8 of DNA strand) was 0.7.
For CTACGCTTTCCACGCACAGT [T8 2'-S-methyl], the activity signal (ratio V0 modified/unmodified) (2'-methylthiothymidine at position 8 of DNA strand) worked out at 0.4.
Turning to CTACGCTTTCCACGCACAGT [T8 2'-ara-fluoro], the activity signal (ratio V0 modified/unmodified) (2'-ara-fluoro at position 8 of DNA strand) came to 1.1.
Consider CTACGCTTTCCACGCACAGT [T8 3'-methyl], for which the activity signal (ratio V0 modified/unmodified) (3'-methylthymidine at position 8 of DNA strand) was 0.8.
As to CTACGCTTTCCACGCACAGT [T8 4'-methyl], for the setting “4'-methylthymidine at position 8 of DNA strand”, the activity signal (ratio V0 modified/unmodified) was found to be 0.6.
Take CTACGCTTTCCACGCACAGT [T8 S2U]: where the note is “2-thiouridine (S2T) at position 8 of DNA strand”, the activity signal (ratio V0 modified/unmodified) was found to be 0.7.
Regarding CTACGCTTTCCACGCACAGT [T8 pseudo-U], where the note is “deoxypseudouridine at position 8 of DNA strand”, the activity signal (ratio V0 modified/unmodified) came out at 1.1.
For CTACGCTTTCCACGCACAGT [T9 2'-F], the activity signal (ratio V0 modified/unmodified) (2'-fluorothymidine at position 9 of DNA strand) was 0.7.
With CTACGCTTTCCACGCACAGT [T9 2'-S-methyl], the activity signal (ratio V0 modified/unmodified) (2'-methylthiothymidine at position 9 of DNA strand) was found to be 0.4.
For the sequence CTACGCTTTCCACGCACAGT [T9 2'-ara-fluoro], the activity signal (ratio V0 modified/unmodified) (2'-ara-fluoro at position 9 of DNA strand) came to 1.1.
Take CTACGCTTTCCACGCACAGT [T9 2,4-F-tolyl]: the activity signal (ratio V0 modified/unmodified) (2,4-difluorotoluoyl at position 9 of DNA strand) was determined as 0.8.
As for CTACGCTTTCCACGCACAGT [T9 3'-methyl], the activity signal (ratio V0 modified/unmodified) (3'-methylthymidine at position 9 of DNA strand) was determined as 0.7.
On to CTACGCTTTCCACGCACAGT [T9 4'-methyl], for which the activity signal (ratio V0 modified/unmodified) (4'-methylthymidine at position 9 of DNA strand) stood at 0.3.
In the case of CTACGCTTTCCACGCACAGT [T9 S2U], the activity signal (ratio V0 modified/unmodified) (2-thiouridine (S2T) at position 9 of DNA strand) turned out to be 0.7.
On to CTACGCTTTCCACGCACAGT [T9 abasic], for which, for the setting “abasic at position 9 of DNA strand”, the activity signal (ratio V0 modified/unmodified) stood at 0.6.
Regarding CTACGCTTTCCACGCACAGT [T9 pseudo-U], the activity signal (ratio V0 modified/unmodified) (deoxypseudouridine at position 9 of DNA strand) amounted to 1.2.
